Data taken from publication PMC10850148.
Results are given in words; binding and its absence hold for the method and conditions named. For part of these data: Binding can be weak; no strength is given.

How the values were obtained:
Assay in all cases: pull-down; about 200 μg purified GST-fused protein on GST beads, equal amount of target protein, 1 h, 4 °C; 20 mM Tris-HCl, 400 mM NaCl; glutathione elution, Coomassie staining; both purified
[1] = target: GST-tagged OY-M SAP05 D106A (onion yellows phytoplasma (OY-M; Candidatus Phytoplasma asteris))
[2] = target: GST-tagged OY-M SAP05 E107A (onion yellows phytoplasma (OY-M; Candidatus Phytoplasma asteris))
[3] = target: GST-tagged OY-M SAP05 W85A (onion yellows phytoplasma (OY-M; Candidatus Phytoplasma asteris))

B1: AtSPL5 ZnF domain (residues 60-124) (domain or fragment, UniProt Q9S758 60-124)
chain: SRLCQVDRCTVNLTEAKQYYRRHRVCEVHAKASAATVAGVRQRFCQQCSRFHELPEFDEAKRSCR
- binding [1]: no binding
- binding [2]: binds
- binding [3]: no binding
